This is an account of results in patent US20240238238A1, “Isotopically Modified Composition and Therapeutic Uses Thereof” (BioJiva LLC, priority 2018, published 2024).

Structures are written as SMILES.

This series is described as follows: Plasma PK by LC-MS (D2-LA, LA, D2-AA) in the phase I/II trial. How it is done: PK samples were obtained predose and at 0.5, 1, 1.5, 2, 4, 6, 8, 12, 16, and 24 hours following the first dose and 14, 28, 29, 30, and 31 days following enrollment. The samples taken on Days 29-31 represent Isotopically modified polyunsaturated fatty acid, ester, thioester, amide, or other prodrug thereof (e.g., 11,11,D2-linoleic acid ethyl ester) washout levels. D2-LA, linoleic acid (LA), deuterated arachidonic acid (D2-AA), and arachidonic acid (ARA) concentrations were measured in the samples.
Plasma concentrations of 11,11-D2-linoleic acid ethyl ester (combined free acid form and ester form) and non-deuterated analogs were determined by liquid chromatography and mass spectrometry (LCMS). Blood was collected in K2EDTA anticoagulant tubes, centrifuged to obtain plasma and red blood cells (RBCs), and frozen until analyzed. The samples were hydrolyzed to free fatty acids and analyzed by high performance LC-MS by Good Laboratory Practice validated methods. Low-intensity D2 and high-intensity H2 signals were measured with high accuracy at Ricerca Biosciences, using an AB SCIEX 6500 tandem-quadrupole MS. The 13C2 isotopomer signal was used as a calibration standard for 11,11,D2-linoleic acid ethyl ester; a polydeuterated internal standard was utilized. The enzymatic elongation/desaturation metabolite, 13,13-D2-arachidonic acid (D2-AA), was also measured, in plasma and red blood cells (RBCs).

Regarding `[2H]C([2H])(/C=C\CCCCC)/C=C\CCCCCCCC(=O)OCC` [11,11-D2-linoleic acid ethyl ester], under “day 28, high dose (4.5 g BID), active treatment subjects”, the “Plasma AUC for H2-LA (non-deuterated LA)” value is recorded as 10,275 μg*h/mL. Besides, the “Day 28 plasma AUC for H2-LA as % of baseline AUC” value (high dose (4.5 g BID), baseline AUC 15,310 μg*h/mL) is “approximately 67%”. The “Change of plasma LA concentrations from predose baseline” value (low dose (1.8 g QD), days 1 and 28) is “did not appear to change”.
